# Screening data, single-dose tests

Sequences of proteins named here, by UniProt entry; tags and fusion partners are left off. Residues count along the entry.
UniProt I6X8D2, whole entry: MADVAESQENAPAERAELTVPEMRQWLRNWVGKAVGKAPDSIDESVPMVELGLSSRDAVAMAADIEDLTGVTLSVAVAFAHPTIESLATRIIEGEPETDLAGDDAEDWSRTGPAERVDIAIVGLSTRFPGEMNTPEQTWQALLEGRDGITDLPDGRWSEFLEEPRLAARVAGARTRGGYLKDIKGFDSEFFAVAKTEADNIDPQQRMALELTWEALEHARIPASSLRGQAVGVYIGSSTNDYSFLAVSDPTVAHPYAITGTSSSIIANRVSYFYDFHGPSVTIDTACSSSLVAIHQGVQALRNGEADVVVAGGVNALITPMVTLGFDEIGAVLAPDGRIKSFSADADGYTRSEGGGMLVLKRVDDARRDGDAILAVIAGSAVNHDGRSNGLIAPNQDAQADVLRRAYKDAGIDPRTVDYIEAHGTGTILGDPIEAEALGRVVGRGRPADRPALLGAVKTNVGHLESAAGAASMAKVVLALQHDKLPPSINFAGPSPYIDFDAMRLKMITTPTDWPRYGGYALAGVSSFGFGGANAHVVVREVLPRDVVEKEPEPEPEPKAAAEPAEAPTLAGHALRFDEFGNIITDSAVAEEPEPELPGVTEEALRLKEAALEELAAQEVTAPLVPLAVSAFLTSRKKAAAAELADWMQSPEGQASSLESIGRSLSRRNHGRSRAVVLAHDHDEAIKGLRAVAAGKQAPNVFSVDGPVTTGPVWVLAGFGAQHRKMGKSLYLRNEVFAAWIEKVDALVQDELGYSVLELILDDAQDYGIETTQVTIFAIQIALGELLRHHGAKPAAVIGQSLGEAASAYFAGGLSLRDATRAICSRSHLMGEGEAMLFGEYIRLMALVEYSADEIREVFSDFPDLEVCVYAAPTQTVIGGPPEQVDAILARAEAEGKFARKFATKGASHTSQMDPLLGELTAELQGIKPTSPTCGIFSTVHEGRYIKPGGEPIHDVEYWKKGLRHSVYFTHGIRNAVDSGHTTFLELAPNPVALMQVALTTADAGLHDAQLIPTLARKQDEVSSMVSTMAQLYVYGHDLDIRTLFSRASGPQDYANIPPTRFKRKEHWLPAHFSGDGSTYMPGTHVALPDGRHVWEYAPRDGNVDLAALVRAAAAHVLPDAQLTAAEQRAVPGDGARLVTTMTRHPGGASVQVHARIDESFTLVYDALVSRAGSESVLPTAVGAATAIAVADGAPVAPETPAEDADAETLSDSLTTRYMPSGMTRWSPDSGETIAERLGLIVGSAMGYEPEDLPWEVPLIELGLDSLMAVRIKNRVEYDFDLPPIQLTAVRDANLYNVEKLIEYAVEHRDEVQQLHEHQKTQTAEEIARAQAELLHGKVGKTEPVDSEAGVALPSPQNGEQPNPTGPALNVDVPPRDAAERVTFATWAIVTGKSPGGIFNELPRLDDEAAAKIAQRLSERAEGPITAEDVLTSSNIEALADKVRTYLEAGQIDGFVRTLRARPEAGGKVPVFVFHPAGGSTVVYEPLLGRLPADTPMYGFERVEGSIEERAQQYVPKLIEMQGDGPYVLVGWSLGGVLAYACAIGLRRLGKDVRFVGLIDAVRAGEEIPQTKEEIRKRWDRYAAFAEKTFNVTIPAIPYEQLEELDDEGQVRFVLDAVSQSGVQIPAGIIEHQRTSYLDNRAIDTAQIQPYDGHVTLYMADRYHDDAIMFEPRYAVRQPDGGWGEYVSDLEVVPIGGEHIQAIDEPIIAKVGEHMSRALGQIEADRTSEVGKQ
UniProt Q4DA54, 1-478: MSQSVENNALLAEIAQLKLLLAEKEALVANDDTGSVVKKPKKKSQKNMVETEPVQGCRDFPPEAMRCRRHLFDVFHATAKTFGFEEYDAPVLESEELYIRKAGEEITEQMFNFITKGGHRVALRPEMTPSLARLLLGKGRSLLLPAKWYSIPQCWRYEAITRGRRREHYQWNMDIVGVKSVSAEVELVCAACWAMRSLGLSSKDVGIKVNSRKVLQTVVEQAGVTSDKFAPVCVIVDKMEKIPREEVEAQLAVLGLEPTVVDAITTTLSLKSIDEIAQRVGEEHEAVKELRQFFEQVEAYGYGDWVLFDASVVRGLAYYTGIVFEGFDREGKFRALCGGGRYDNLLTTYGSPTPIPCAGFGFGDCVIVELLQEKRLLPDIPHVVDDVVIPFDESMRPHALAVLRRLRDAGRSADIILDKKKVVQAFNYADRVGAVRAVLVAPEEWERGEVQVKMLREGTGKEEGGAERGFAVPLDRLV

Each number is a percent effect as filed. How 0% and 100% were set is not recorded. Most values in the screen are low, and negative values occur. The compounds are a random part of those screened. A dash means the value is not listed here; it may have been measured.

Pks13 thioesterase: 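Enzyme assay of the thioesterase domain of polyketide synthase 13; the read-out is not stated. Target: Polyketide synthase Pks13, Mycobacterium tuberculosis (UniProt I6X8D2). Tested at 30 µM. Higher reads as stronger inhibition (inferred from which compounds were picked for retests). About 67,000 compounds were tested under these conditions; 0.46% (about 300) showed 50% or more at least once.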
TcHisRS: 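Enzyme assay of histidyl-tRNA synthetase; the read-out is not stated. Target: Histidine-tRNA ligase, Trypanosoma cruzi CL Brener (UniProt Q4DA54). Concentration: 30 µM. Direction is inferred from retests: higher values go with stronger inhibition. Of about 69,000 compounds tested this way, about 31 (0.045%) reached 50% or more in at least one test.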

compound,Pks13 thioesterase,TcHisRS
O=C(NCC1CCN(c2ccncc2)CC1)C(O)c1ccccc1 (centres unmarked),-21.86%,8.696%
CCOCCNC1(c2ccc(Cl)cc2)CCOCC1,-13.39%,4.865%
O=C(O)CCc1cc2n(n1)CCCN(C(=O)c1cc3ccccc3s1)C2,-12.7%,-2.513%
NCc1cnn(-c2ccccc2C(=O)NCCc2ccncc2)c1,2.776%,-20.22%
CN(C)Cc1ccccc1CN(C)C(=O)c1ccoc1,-3.601%,0%
COc1ccc(CCC(=O)NCCC2CCCO2)cc1Br (centres unmarked),-13.83%,-1.031%
CCN(C)[C@H]1CN(C(=O)c2cccc(N3CCS(=O)(=O)CC3)c2)C[C@@H]1O,-4.572%,4%
CCc1cccc(N2CCC(NC(=O)c3ccoc3C)CC2)c1,-23.74%,2.254%
COc1ncccc1C(=O)N1CCCC1c1nc(-c2ccccc2)n[nH]1 (centres unmarked),-3.891%,-12.35%
CN(Cc1ccccc1)C(=O)CCN1C[C@H](C2CC2)[C@@H](N(C)C)C1,-7.698%,3.483%
CCc1ccc(-n2c(=O)[nH]c3nc(N4CCSCC4)ncc3c2=O)cc1,-30.96%,0%
O=C(C1CC(F)(F)C1)N1C[C@@H]2CN(CC3CC3)CCO[C@@H]2C1,-45.34%,3.911%
O=C(CCc1ccc(Br)cc1)NCCc1nnc[nH]1,-24.26%,0%
COCC(C)NC(=O)NCCc1cccc(OC)c1O (centres unmarked),7.589%,0.9804%
CC1CCCCN1C(=O)Cn1cnc(C#N)n1 (centres unmarked),2.69%,1.19%
CCOC(=O)[C@@H]1[C@@H](c2ccccc2)CN2CCNC[C@H]12,-3.414%,4.494%
Cc1nccn1-c1ccc(C(C)NCCC(C)C)cc1 (centres unmarked),-18.58%,-1.478%
O=C(NC1CC1)C(c1ccccc1)N1CCn2c(nnc2C2CC2)C1 (centres unmarked),-12.98%,4.985%
Cc1ccc(CNC(=O)Cc2c(C)nc3c(c2C)c(=O)[nH]n3C)cc1,-,4.373%
CCOCc1ncn2c1CN(S(=O)(=O)c1cccc(C)c1)CC2,7.506%,6.931%
C[C@H]1C[C@H]2CN(S(=O)(=O)c3ccc(F)cc3)CC[C@H]2O1,-44.63%,5.825%
Cc1cc(C(C)NC(=O)CCn2nnc3ccccc3c2=O)c(C)o1 (centres unmarked),-3.186%,11.11%
COc1ccccc1C1SCC(=O)Nc2c1c(=O)[nH]n2C1CCCCC1 (centres unmarked),-30.41%,0%
Cc1nc2c(c(=O)[nH]1)CN(Cc1ccc3c(c1)CCCN3C)CC2,-5.561%,6.571%
Cc1nc2c(c(=O)n1C)CCN(C(=O)Cn1cccc1)CC2,-11.23%,-2.174%
CN1C(=O)CCCC12CCCN(C(=O)c1ccc3c(c1)OCO3)C2 (centres unmarked),-15.48%,2.404%
CCc1nnc2ccc(NCC3(N4CCCCC4)CCOCC3)nn12,-16.69%,7.937%
CS(=O)(=O)N1CCO[C@@H]2CN(C(=O)C3CCOC3)CC[C@@H]2C1 (some centres unmarked),-9.897%,-7.735%
O=S1(=O)CCN(Cc2cccnc2)[C@H]2CCN(c3ncccn3)CC[C@H]21,-7.144%,6.952%
CC(C)CNC(=O)c1ccc2nnc(C3CCN(S(C)(=O)=O)C3)n2c1 (centres unmarked),-17.04%,-1.639%
Cc1cc(NC(=O)c2ccc(N3CCOCC3)cc2)[nH]n1,2.753%,6.145%
CCN(Cc1ccc(O)c(C(=O)O)c1)CC1CCOCC1,-0.005491%,6.438%
CN(Cc1ccsc1)C(=O)CNC(=O)N1CCc2ccccc2C1,-7.221%,5.941%
Cn1ccnc1CCC1CCCCN1Cc1cnc(N2CCCC2)nc1 (centres unmarked),-18.76%,10.4%
Cc1ccc(OC2(C(=O)NC(C)Cc3ccncc3)CCNCC2)cc1 (centres unmarked),-8.314%,0.8772%
Cc1nc(CN2CCN(c3cc(CCN)ncn3)CC2)cs1,-14.71%,3.704%
CC(=O)Nc1ccc(Cl)c(C(=O)N(C)C(C)c2ccon2)c1 (centres unmarked),-7.138%,2.809%
Cc1nc(C)n(CC2CN(Cc3nc4ccccc4s3)CCO2)n1 (centres unmarked),-2.603%,4.871%
Cc1csc2c(N3CCC(NCCCc4cnn(C)c4)CC3)ncnc12,-18.67%,-2.513%
CC(NC(=O)CCOc1cccc(F)c1)c1nnc2n1CCC2 (centres unmarked),-4.28%,4.942%
CSCC[C@@H]1CN2CCC[C@H]2CN1Cc1coc2ccc(C)cc2c1=O,-16.82%,13.64%
O=C(NCc1cccs1)C1CN(C(=O)c2cccs2)CC12CCOCC2 (centres unmarked),-9.911%,-1.622%
CN(C)C(=O)CO[C@H]1CN(Cc2ccsc2)[C@@H]2COC[C@H]12,-4.76%,14.44%
CC(C)NC(=O)C1CCN(C(C)C(=O)N2CCc3sccc3C2)CC1 (centres unmarked),-31.35%,5.102%
Cc1nccn1CCCN1CCCC(c2nccn2C)C1 (centres unmarked),-17.27%,9.045%
CCc1nccn1C1CCCN(C(=O)C2=NN(C)C(=O)CC2)C1 (centres unmarked),-13.8%,2.035%
COCC(=O)N1C[C@H]2CNC[C@@]2(C(=O)NCc2cc(C)n[nH]2)C1,-8.498%,4.255%
Brc1cccc(-c2noc(C3COCCO3)n2)c1 (centres unmarked),-15.21%,5.319%
c1cnc(N2CCCC3(CCN(c4ncccn4)C3)C2)nc1 (centres unmarked),0.2977%,4.02%
Cc1csc(C(C#N)C(=O)NCc2ccccc2)n1 (centres unmarked),-10.52%,2.222%
Cc1cnn(C2CCCN(C(=O)c3ccc(NC4CC4)nc3)C2)c1 (centres unmarked),-0.6356%,4.023%
Cc1c(S(=O)(=O)N2CCCCC2c2nnc(-c3cccs3)o2)cnn1C (centres unmarked),6.821%,6.513%
CC(NC(=O)c1ccc(CS(C)(=O)=O)o1)c1ccc(F)c(F)c1 (centres unmarked),-18.99%,4.433%
COc1ccccc1CC(=O)N1CCC(NCc2cc[nH]c2)CC1,33.05%,0.3831%
CC(C)C1CN(C(=O)c2cn3cc(Cl)cnc3n2)CCCN1CC1CC1 (centres unmarked),-27.07%,-0.8772%
CC(=O)N1CCCCC1c1nc2c(c(NC3CCCC3)n1)CN(C)CC2 (centres unmarked),-1.849%,16.48%
COc1ccc(C(C(=O)O)N(C)CCN2CCCC2)cc1F (centres unmarked),-15.85%,3.226%
CC(C)CN1CCC2(CCCNC2)C1=O (centres unmarked),-22.75%,-12.62%
OC1(CN2CCC(Cc3ncccn3)CC2)CCOCC1,-19.2%,0.3831%
CCN1C(=O)[C@H]2CN(CC(C)C)C[C@H]2C12CCN(C(=O)NC(C)C)CC2,-36.47%,2.151%
OCc1ccc(-c2nccn2CCC2=CCCCC2)o1,-31.87%,3.448%
CSCC(CCO)NC(=O)Nc1cc(F)ccc1C (centres unmarked),0.9812%,2.439%
CC(C(=O)NCCCn1ccnc1)n1cc(Br)cn1 (centres unmarked),-24.97%,4.184%
Cn1cccc1C(=O)N1CC[C@@H]2[C@@H]1CC(=O)N2CCN1CCOCC1,1.13%,4.386%
Cc1nn(C)c(C)c1CCC(=O)N(C)Cc1ccc(C#N)cc1,-44.96%,0.8772%
Cc1nn(CCO)c(C)c1CNC1CCCCc2ccccc21 (centres unmarked),-24.58%,-3.061%
CC(C1CC1)N(CC(=O)NCC(F)(F)F)C1CC1 (centres unmarked),-20.87%,6.404%
Cc1oc(CNC(=O)Cc2ccccc2Cl)cc1C(=O)O,-23.34%,0%
c1cc2c(cc1Cn1cc(C3CCOC3)nn1)OCO2 (centres unmarked),-23.78%,-15.38%

Some entries from above, unchanged:

{"compound": "O=C(NCc1cccs1)C1CN(C(=O)c2cccs2)CC12CCOCC2", "stereo": "centres unmarked", "Pks13 thioesterase": -9.911, "TcHisRS": -1.622}
{"compound": "Cc1nn(C)c(C)c1CCC(=O)N(C)Cc1ccc(C#N)cc1", "Pks13 thioesterase": -44.96, "TcHisRS": 0.8772}
{"compound": "O=S1(=O)CCN(Cc2cccnc2)[C@H]2CCN(c3ncccn3)CC[C@H]21", "Pks13 thioesterase": -7.144, "TcHisRS": 6.952}
{"compound": "Cc1ccc(CNC(=O)Cc2c(C)nc3c(c2C)c(=O)[nH]n3C)cc1", "TcHisRS": 4.373}
{"compound": "Cc1csc2c(N3CCC(NCCCc4cnn(C)c4)CC3)ncnc12", "Pks13 thioesterase": -18.67, "TcHisRS": -2.513}
{"compound": "CC(NC(=O)CCOc1cccc(F)c1)c1nnc2n1CCC2", "stereo": "centres unmarked", "Pks13 thioesterase": -4.28, "TcHisRS": 4.942}
{"compound": "OC1(CN2CCC(Cc3ncccn3)CC2)CCOCC1", "Pks13 thioesterase": -19.2, "TcHisRS": 0.3831}
{"compound": "NCc1cnn(-c2ccccc2C(=O)NCCc2ccncc2)c1", "Pks13 thioesterase": 2.776, "TcHisRS": -20.22}
{"compound": "CC(C)CN1CCC2(CCCNC2)C1=O", "stereo": "centres unmarked", "Pks13 thioesterase": -22.75, "TcHisRS": -12.62}

Source: ChEMBL document CHEMBL3988442, “University of Dundee, Small-Polar-MMV Screening Library” (2021).